According to article PMC5459885, “Relaxin-Family Peptide Receptors 1 and 2 Are Fully Functional in the Bovine” (Frontiers in Physiology, 2017):

Assay: INSL3 concentration in bovine follicular fluid (TRFIA)

B1: bovine INSL3 (protein, UniProt O77801 22-66; O77801 27-66; O77801 107-132, looked up)
Insulin-like 3 B' chain: GPAAAQEAPEKLCGHHFVRALVRLCGGPRWSSEEDGRPVAGGDRE
Insulin-like 3 B chain: QEAPEKLCGHHFVRALVRLCGGPRWSSEEDGRPVAGGDRE
Insulin-like 3 A chain: ATAINPARHCCLSGCTRQDLLTLCPH
notes: bovine insulin-like peptide 3, cognate ligand of bovine RXFP2
difference in total INSL3 per follicle, medium-sized vs large follicles (3–6 mm (n = 115) vs 6–10 mm (n = 17)): not significantly different
in vivo concentration of INSL3 in follicular fluid (large follicles (6–10 mm), assuming antral fluid volume 180 μl): 136 ng/mL
Total INSL3 per follicle (large follicles (diameter 6–10 mm), n = 17): 24.5 ± 43.1 ng
in vivo concentration of INSL3 in follicular fluid (medium-sized follicles (3–6 mm), assuming antral fluid volume 35 μl): 376 ng/mL
Total INSL3 per follicle (medium-sized follicles (diameter 3–6 mm), n = 115): 13.2 ± 13.8 ng
